Patent US20260055187A1
These are yes or no findings as the source states them, for the method shown. Some results given as binding are weak or reduced against the parent protein; the word gives no strength.

Sequences of proteins named here, by UniProt entry; tags and fusion partners are left off. A change or cut given only in a name is not applied to a line headed by its entry. A line that says so, or that is headed by a name, gives the form on record, which may keep a tag or linker. Residues count along the entry.
UniProt Q15116: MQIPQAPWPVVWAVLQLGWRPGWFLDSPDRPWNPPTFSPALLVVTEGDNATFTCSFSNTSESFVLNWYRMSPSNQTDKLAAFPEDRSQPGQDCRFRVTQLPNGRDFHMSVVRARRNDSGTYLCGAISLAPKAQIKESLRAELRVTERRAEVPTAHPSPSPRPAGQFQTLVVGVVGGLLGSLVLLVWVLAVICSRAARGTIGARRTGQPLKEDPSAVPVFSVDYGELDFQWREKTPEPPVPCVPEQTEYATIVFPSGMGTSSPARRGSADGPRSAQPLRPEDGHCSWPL
PD-1 expressed on activated T cells: residues 25-288 of Q15116
His-tagged extracellular domain of human PD-1: residues 25-170 of Q15116

B1: PD-1 antibody 3H4 (antibody, V domains shown)
VH: QIQLQQSGPELVKPGASVKISCKASGYTFTDYYINWVKQKPGQGLEWIGWIYPGSVNTKYNEKFRGKATLTVDTSSSTAYIQLSGLTSEDTAVYFCARYSNWFFDVWGAGTAVTVS
VL: DIVMTQSPSSLSASLGERVSLTCRASQEISGYLSWLQQKPDGTIKRLIYAASTLDSGVPKRFSGSRSGSDYSLSISSLESEDFADYYCLQYASYPYTFGGGTKLEIKR
B2: PD-1 antibody 1-17 (antibody, V domains shown)
VH: QVQLQESGPGVVKPSGTLSLTCAISGGSIGSGGSIRSTRWWSWVRQSPGKGLEWIGEIYHSGSTNYNPSLKSRVTISLDKSRNHFSLRLNSVTAADTAVYYCARQDYGDSGDWYFDLWGKGTMVTVSS
VL: NFMLTQPHSVSESPGKTVTISCTRSSGSIASNSVQWYQQRPGSSPTTVIYEDNQRPSGVPDRFSGSIDSSSNSASLTVSGLKTEDEADYYCQSSDSSAVVFGSGTKLTVL
B3: PD-1 antibody 1-28 (antibody, V domains shown)
VH: EVQLVQSGAEVKKPGASVKVSCKASGYRFTSYGISWVRQAPGQGLEWMGWISAYNGNTNYAQKLQGRVTMTTDTSTNTAYMELRSLRSDDTAVYYCARDADYSSGSGYWGQGTLVTVSS
VL: SYELTQPPSVSVSPGQTARITCSGDALPKQYAYWYQQKPGQAPVMVIYKDTERPSGIPERFSGSSSGTKVTLTISGVQAEDEADYYCQSADNSITYRVFGGGTKVTVL
B4: PD-1 antibody 1-33 (antibody, V domains shown)
VH: QVQLVQSGAEVKKPGASVRVSCKASGYTLTSYYIHWVRQAPGQGLEWMGIINPRGATISYAQKFQGRVTMTRDTSTSTVYMELRNLKSEDTALYYCATAGIYGFDFDYWGRGTLVTVSS
VL: QSALTQPASVSGSPGQSITISCTGTSNDVGGYNYVSWYQHHPGKAPKLIIYDVTNRPSGVSDRFSGSKSGNTASLTISGLLAEDEGDYYCSSYTIVTNFEVLFGGGTKLTV

Target: PD-1 expressed on activated T cells (UniProt Q15116)
Test: flow cytometry on activated T cells

binding, binds:
B1, B2, B3, B4

Target: His-tagged extracellular domain of human PD-1 (human) (UniProt Q15116)
Test: ELISA, His-tagged extracellular domain on plate

binding, binds:
B1

Target: PD-1 expressed on activated T cells (UniProt Q15116)
Test: flow cytometry on activated T cells, PE anti-human secondary

binding, binds:
B1, B2, B3, B4
